At least one compound was matched to its structure with a doubt left.
Legend:
[1] = system: small conductance KCa channels (KCa 2.1, 2.2, and 2.3); details: cited from earlier work
rat model of RA (PIA) = test: Pristane-induced arthritis (PIA) model treated with KCa1.1 blockers; format: in vivo; details: paxilline 20 mg/kg i.p., IbTX 0.5 mg/kg s.c., every other day from onset
Procedure: FIGS. 12A-12E. Blocking KCa1.1 reduces the severity of an animal model of RA. FIG. 12A. Effects of vehicle (□), paxilline (▪, 20 mg/kg), and iberiotoxin (IbTX, ▪, 0.5 mg/kg) in rats with PIA. Injections were given intraperitoneally (paxilline) or subcutaneously (IbTX), every other day, starting at onset of clinical signs. N=18 rats per group. FIG. 12B. Ex vivo invasiveness of FLS isolated from healthy rats or arthritic rats, treated with vehicle or IbTX. N=5 rats per group. FIG. 12C. Representative images from the joints of arthritic rats, treated with vehicle or IbTX, and stained with Safranin O-fast green (red: cartilage & bone marrow; blue: bone). FIG. 12D. Number of urine spots after rats received a single injection of vehicle, paxilline, or IbTX and were gavaged with 1 ml drinking water. N=6 rats per group. FIG. 12E. Representative tremor measurements in rats 10 min after the injection of vehicle, paxilline, or IbTX. *p<0.05, **p<0.01, ***p<0.001.
The inventors have tested the efficacy and safety of two KCa1.1 blockers, the small molecule paxilline that blocks KCa1.1 regardless of β subunit and the peptide IbTX that blocks only some αβ combinations of KCa1.1.

CC(C)C[C@@H]1NC(=O)[C@H](C)NC(=O)[C@H]([C@@H](C)O)NC(=O)[C@H](CCC(=O)O)NC(=O)[C@@H]2CCCN2C(=O)[C@H](C)NC(=O)[C@H](CCCCN)NC(=O)[C@@H]2CSSC[C@@H](C(=O)N[C@@H](CCC(N)=O)C(=O)N[C@@H](CCC(N)=O)C(=O)N[C@@H](Cc3cnc[nH]3)C(N)=O)NC(=O)[C@H](CCCNC(=N)N)NC(=O)[C@H](CCCNC(=N)N)NC(=O)[C@H](C)NC(=O)[C@H](CSSC[C@H](N)C(=O)N[C@@H](CC(N)=O)C(=O)N2)NC1=O [apamin]
Concentration range of block [1]: 100 pM-10 nM

CC(C)(O)[C@H]1O[C@H]2CC[C@@]3(C)[C@@](O)(CC[C@H]4Cc5c([nH]c6ccccc56)[C@@]43C)C2=CC1=O [paxilline]
Reduction of disease severity (rat model of RA (PIA)): effective in reducing disease severity
